{"source": "patent US12049583B2", "about": "“Compound, composition for anisotropic dye films including the compound, anisotropic dye film, and optical element” (Mitsubishi Chemical Corporation, priority 2020, dated 2024)", "data": [{"test": "Dichroic ratio of anisotropic dye film (polarized light transmittance, D=Az/Ay)", "conditions": "anisotropic dye film of the dye in polymerizable liquid crystal compound I-1, sandwich cell gap 8.0 μm, 40 °C, at wavelength of local maximum dichroic ratio in 350 to 800 nm", "protocol": "The transmittance of light polarized in the direction of the absorption axis/polarizing axis through the anisotropic dye film prepared was measured using a spectrophotometer (Product name: “RETS-100” produced by Otsuka Electronics Co., Ltd.) equipped with a Glan-Thompson polarizer.\nLinearly polarized light was incident on the anisotropic dye film as measurement light. The transmittance of light polarized in the direction of absorption axis through the anisotropic dye film and the transmittance of light polarized in the direction of polarizing axis through the anisotropic dye film were measured. A dichroic ratio (D) was calculated using the following formula. D=Az/Ay • (in the above formula, • Ay=−log(Ty); • Az=−log(Tz); • where Tz represents the transmittance of light polarized in the direction of absorption axis through the anisotropic dye film; and • Ty represents the transmittance of light polarized in the direction of polarizing axis through the anisotropic dye film)\nSpecifically, into a sandwich cell including a glass substrate and a polyimide alignment film (LX1400, produced by HD MicroSystems, Ltd.) disposed thereon (cell gap: 8.0 μm, 10.0 μm, prepared by subjecting a polyimide film to a rubbing treatment with a cloth), the composition for anisotropic dye films was injected in an isotropic phase. Subsequently, cooling was performed to 80° C. at 5° C./min. Hereby, an anisotropic dye film was prepared. Then, while the temperature was reduced to 0° C. at 5° C./min, the dichroic ratio was measured at predetermined temperatures. The dichroic ratio at the temperature and wavelength at which the maximum dichroic ratio was measured was determined as the dichroic ratio of the anisotropic dye film. In addition, at the above temperature, the dichroic ratio at the wavelength at which the absorbance of the anisotropic dye film in the quadrature direction (absorption axis direction) was a local maximum (the dichroic ratio at the wavelength at which the absorbance of the film was a local maximum) was also measured.", "values": [{"smiles": "CCN(CC)c1ccc(/N=N/c2ccc(/N=N/c3nc4sc(CCC(C)CC(C)(C)C)cc4s3)cc2)cc1", "note": "(stereo not drawn) [II-1]", "Dichroic ratio at the above wavelength": 42.4}, {"smiles": "CCN(CC)c1ccc(/N=N/c2ccc(/N=N/c3nc4sc(CCC(C)C)cc4s3)cc2)cc1", "note": "[II-2]", "Dichroic ratio at the above wavelength": 41}, {"smiles": "CCN(CC)c1ccc(/N=N/c2nc3sc(/N=N/c4ccc(OCCC(C)CC(C)(C)C)cc4)cc3s2)cc1", "note": "(stereo not drawn) [II-3]", "Dichroic ratio at the above wavelength": 47}, {"smiles": "CCCCSc1nnc(/N=N/c2ccc(/N=N/c3ccc(N(CC)CC)cc3)cc2)s1", "note": "[IV-2]", "Dichroic ratio at the above wavelength": 44.0}, {"smiles": "CCN(CC)c1ccc(/N=N/c2ccc(/N=N/c3sc(C)cc3C#N)cc2)cc1", "note": "[IV-3]", "Dichroic ratio at the above wavelength": 20.5}, {"smiles": "CCN(CC)c1ccc(/N=N/c2ccc(/N=N/c3cc(C)ns3)cc2)cc1", "note": "[IV-4]", "Dichroic ratio at the above wavelength": 41.4}]}]}
